The other results are listed elsewhere or left out. The data scatter; read single values as rough.
Experiments:
[1] = compound: ClCC(=O)N[C@@H]1CCCc2ccccc12; assay: log2 mean competition ratio of IA-DTB cysteine labelling (DMSO/compound) (log2 ratio); higher = stronger cysteine engagement by compound; settings: treatment time: 4 h, cell line lysate: HEK293T
Protocol: (§1)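 IA-DTB competitive cysteine chemoproteomics in HEK293T RIPA lysate. Lysates were treated with compound 29 or 30 at 50 or 200 µM for 4 h, then IA-DTB (500 µM, 1 h), trypsin-digested, NeutrAvidin-enriched and analysed by diaPASEF. Competition ratio = intensity DMSO / intensity compound (n=4 treated, n=64 DMSO); binding: mean log2 CR ≥ 1 and p ≤ 0.05 plus QC filters. Target is the cysteine site.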

Chains of the proteins cited; added tags and fusions are not shown. Lines headed by an entry give the natural chain unless they say otherwise; changes in a name come on top.
UniProt Q9H063: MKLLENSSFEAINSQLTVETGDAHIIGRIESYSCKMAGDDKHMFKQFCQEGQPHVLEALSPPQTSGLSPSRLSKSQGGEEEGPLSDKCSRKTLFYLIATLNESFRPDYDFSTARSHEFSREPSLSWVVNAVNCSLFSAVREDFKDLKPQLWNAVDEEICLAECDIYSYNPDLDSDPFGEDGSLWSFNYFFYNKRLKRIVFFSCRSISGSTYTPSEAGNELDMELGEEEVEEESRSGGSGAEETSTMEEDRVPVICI
UniProt Q9Y546: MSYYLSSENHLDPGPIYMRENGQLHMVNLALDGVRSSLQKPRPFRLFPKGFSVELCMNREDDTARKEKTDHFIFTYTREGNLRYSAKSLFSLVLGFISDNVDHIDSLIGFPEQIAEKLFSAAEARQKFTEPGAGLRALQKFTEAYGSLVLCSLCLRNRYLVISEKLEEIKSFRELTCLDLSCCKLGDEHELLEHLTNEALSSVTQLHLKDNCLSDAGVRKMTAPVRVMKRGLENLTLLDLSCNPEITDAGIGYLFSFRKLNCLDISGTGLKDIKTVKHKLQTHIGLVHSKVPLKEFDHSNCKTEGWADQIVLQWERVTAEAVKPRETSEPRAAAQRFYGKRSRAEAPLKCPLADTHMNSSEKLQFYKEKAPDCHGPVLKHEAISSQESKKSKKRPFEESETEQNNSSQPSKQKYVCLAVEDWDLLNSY
UniProt P25205: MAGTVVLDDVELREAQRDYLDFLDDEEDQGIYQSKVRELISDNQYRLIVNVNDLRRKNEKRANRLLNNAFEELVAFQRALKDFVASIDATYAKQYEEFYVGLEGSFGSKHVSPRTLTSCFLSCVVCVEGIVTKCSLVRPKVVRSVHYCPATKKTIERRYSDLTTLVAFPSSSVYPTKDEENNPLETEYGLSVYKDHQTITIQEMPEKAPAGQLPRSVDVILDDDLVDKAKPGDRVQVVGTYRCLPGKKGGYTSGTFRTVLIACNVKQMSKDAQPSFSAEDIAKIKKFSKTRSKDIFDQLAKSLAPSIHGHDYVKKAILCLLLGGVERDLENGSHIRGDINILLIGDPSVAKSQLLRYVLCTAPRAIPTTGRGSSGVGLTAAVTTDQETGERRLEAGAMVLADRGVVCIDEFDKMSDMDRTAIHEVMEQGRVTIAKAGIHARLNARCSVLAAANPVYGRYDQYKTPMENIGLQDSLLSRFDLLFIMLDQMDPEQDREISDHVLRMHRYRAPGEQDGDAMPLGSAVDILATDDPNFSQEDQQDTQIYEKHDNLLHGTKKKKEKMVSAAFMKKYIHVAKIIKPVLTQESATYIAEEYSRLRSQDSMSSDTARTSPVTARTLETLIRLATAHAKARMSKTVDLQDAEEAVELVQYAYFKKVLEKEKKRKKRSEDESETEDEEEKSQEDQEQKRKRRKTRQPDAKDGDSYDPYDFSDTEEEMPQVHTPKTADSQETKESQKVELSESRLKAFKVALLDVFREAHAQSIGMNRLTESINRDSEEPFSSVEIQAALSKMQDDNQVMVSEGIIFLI
UniProt Q5VWZ2: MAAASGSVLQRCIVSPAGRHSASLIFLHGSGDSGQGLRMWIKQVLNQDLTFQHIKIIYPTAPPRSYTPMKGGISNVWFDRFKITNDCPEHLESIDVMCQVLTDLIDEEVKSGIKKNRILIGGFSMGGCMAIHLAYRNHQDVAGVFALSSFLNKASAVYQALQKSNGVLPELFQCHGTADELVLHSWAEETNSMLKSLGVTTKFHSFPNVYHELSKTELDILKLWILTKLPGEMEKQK
UniProt Q15691: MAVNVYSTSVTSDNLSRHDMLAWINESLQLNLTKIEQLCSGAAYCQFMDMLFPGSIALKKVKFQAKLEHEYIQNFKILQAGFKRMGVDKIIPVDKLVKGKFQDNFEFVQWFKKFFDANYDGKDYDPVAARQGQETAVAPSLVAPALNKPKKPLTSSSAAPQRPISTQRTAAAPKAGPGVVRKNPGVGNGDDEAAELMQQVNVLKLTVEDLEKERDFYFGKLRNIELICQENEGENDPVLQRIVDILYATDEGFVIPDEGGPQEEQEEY
UniProt P55145: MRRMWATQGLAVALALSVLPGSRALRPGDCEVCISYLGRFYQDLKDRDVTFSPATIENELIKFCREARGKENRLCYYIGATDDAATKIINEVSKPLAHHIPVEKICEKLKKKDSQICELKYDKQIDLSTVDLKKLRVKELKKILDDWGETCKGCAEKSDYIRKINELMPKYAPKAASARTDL
UniProt O60318: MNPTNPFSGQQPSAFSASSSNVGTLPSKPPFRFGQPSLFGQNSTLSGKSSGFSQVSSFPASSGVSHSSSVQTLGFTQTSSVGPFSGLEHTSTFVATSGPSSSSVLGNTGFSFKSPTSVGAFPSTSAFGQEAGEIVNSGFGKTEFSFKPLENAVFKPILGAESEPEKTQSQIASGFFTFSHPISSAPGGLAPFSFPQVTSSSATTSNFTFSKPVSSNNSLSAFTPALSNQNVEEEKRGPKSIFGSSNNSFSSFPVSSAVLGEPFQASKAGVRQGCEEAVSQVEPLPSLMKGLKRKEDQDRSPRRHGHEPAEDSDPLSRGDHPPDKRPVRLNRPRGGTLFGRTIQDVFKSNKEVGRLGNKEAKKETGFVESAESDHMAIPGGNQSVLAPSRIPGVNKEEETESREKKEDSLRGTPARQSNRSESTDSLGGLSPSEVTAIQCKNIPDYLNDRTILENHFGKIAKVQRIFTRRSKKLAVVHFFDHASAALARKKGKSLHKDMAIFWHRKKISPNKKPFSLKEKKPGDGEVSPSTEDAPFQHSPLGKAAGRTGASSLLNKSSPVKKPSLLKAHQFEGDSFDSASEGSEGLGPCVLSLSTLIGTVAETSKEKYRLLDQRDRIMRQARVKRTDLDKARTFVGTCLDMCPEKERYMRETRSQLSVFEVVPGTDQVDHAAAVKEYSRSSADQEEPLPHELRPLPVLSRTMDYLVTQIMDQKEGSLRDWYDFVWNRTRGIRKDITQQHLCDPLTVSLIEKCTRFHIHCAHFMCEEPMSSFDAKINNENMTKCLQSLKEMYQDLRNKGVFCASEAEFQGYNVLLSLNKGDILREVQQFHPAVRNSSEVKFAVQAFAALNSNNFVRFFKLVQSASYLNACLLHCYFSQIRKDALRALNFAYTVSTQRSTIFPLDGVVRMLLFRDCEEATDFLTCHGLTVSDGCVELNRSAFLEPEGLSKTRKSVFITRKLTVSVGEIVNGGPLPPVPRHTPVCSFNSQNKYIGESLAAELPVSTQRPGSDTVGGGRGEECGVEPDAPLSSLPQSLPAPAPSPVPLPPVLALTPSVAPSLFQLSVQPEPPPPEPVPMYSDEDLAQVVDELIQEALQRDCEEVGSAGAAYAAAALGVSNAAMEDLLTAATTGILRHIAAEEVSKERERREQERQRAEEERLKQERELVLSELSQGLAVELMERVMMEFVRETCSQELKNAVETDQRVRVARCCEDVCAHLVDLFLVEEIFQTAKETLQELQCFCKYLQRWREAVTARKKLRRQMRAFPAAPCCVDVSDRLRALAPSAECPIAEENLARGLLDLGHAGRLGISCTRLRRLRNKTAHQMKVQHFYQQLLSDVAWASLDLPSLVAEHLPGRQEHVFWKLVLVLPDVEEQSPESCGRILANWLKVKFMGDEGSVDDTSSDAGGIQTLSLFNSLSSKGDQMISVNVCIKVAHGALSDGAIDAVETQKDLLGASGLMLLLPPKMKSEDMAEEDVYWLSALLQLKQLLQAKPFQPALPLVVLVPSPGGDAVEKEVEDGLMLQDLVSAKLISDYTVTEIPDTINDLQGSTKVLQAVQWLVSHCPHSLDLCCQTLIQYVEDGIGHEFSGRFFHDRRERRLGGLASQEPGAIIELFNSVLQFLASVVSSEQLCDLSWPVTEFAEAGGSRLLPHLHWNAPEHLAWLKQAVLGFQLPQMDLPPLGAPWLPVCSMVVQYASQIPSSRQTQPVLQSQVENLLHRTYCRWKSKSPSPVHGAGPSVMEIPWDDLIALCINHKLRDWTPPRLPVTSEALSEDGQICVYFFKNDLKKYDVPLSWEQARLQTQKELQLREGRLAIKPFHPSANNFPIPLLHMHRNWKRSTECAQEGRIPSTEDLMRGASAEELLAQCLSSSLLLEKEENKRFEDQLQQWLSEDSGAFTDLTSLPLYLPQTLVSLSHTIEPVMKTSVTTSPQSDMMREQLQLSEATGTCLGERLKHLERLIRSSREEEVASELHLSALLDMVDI
UniProt Q9BRK4: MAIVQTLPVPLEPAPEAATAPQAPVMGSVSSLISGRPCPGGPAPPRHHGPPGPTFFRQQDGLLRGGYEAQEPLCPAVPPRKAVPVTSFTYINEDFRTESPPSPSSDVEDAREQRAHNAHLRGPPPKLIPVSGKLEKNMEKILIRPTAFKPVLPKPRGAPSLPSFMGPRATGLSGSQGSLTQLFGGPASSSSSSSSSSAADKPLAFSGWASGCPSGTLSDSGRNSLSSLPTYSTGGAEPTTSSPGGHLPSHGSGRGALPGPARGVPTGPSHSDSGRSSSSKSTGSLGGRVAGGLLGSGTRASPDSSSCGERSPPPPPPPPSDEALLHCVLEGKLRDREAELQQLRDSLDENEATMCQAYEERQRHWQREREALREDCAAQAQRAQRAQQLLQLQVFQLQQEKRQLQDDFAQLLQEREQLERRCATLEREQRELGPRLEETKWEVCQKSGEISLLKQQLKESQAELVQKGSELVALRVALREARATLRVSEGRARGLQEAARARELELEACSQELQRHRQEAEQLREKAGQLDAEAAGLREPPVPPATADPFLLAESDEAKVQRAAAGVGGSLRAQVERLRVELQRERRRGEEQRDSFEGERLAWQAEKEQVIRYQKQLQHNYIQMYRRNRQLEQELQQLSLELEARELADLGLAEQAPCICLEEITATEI
UniProt Q3KQU3: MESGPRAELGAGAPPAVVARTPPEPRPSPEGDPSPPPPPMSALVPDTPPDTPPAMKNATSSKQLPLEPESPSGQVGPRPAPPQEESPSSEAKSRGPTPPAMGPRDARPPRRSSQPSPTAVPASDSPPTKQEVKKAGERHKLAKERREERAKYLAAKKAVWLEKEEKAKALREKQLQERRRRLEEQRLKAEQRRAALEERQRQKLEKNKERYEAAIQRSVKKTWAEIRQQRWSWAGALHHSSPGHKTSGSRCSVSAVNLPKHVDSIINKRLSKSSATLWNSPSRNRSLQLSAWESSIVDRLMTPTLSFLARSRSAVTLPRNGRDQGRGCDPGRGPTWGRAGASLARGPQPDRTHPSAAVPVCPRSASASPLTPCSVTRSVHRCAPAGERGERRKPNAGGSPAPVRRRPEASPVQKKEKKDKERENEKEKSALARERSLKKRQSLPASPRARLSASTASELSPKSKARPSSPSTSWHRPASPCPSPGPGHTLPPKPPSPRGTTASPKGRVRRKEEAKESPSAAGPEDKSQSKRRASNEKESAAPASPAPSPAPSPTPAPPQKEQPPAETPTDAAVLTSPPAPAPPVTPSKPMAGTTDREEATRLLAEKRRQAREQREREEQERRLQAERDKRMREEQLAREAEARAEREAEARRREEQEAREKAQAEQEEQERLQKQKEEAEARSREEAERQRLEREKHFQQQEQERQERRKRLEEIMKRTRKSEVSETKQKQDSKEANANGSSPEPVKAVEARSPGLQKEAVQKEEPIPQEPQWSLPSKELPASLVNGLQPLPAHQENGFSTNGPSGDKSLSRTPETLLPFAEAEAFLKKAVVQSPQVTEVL
UniProt O43318: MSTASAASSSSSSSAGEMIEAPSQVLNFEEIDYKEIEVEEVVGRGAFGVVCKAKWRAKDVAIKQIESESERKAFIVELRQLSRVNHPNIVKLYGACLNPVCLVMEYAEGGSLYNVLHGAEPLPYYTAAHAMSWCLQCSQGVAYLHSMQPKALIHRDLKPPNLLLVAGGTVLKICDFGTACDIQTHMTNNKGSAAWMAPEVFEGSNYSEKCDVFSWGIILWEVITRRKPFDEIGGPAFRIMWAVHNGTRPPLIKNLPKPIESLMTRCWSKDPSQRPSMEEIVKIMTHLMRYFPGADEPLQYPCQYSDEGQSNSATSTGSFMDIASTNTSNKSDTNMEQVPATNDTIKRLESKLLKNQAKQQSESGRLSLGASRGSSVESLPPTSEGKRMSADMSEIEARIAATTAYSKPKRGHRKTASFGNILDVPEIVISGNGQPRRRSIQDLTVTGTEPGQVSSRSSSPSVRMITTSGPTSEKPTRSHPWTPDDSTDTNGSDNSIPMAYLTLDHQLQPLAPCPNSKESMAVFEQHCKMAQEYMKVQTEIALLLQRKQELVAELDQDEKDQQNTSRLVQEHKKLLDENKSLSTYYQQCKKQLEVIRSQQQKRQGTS

[2] = compound: ClCC(=O)N[C@H]1CCCc2ccccc12; assay: as above; settings: treatment time: 4 h, cell line lysate: HEK293T
Protocol: as §1

Target | log2 mean competition ratio ([1]; 50 µM) | log2 mean competition ratio ([1]; 200 µM) | log2 mean competition ratio ([2]; 50 µM) | log2 mean competition ratio ([2]; 200 µM)
MAF1 C34 (UniProt Q9H063) | -0.0744 | 0.0607 | 0.232 | -0.0992
MCF2L C580 | -0.136 | 0.264 | -0.169 | -0.0561
MAP4 C535 | -0.28 | -0.11 | -0.238 | -0.0136
MARK3 C46 (UniProt P27448) | -0.0725 | 0.245 | -0.669 | 0.0813
MCM6 C393 (UniProt Q14566) | -0.312 | -0.28 | -0.0257 | -0.137
LRRC42 C212 (UniProt Q9Y546) | 0.0413 | -0.106 | 0.00807 | 0.0812
MCM3 C407 (UniProt P25205) | -0.159 | -0.0455 | -0.263 | -0.0375
MAP1A C912 (UniProt P78559) | -0.316 | 0.125 | -0.543 | 0.0922
MAP1S C975 (UniProt Q66K74) | -0.209 | -0.0352 | 0.176 | -0.0307
LYPLAL1 C12 (UniProt Q5VWZ2) | -0.0187 | -0.215 | 0.116 | -0.212
MAPRE1 C228 (UniProt Q15691) | -0.513 | 0.388 | -0.402 | 0.163
MANF C151 (UniProt P55145) | -0.069 | -0.00874 | -0.167 | 0.189
LSM14A C375 | -0.0257 | 0.27 | 0.218 | 0.527
MCM3AP C981 (UniProt O60318) | -0.0367 | -0.00901 | 0.19 | -0.172
LZTS2 C444 (UniProt Q9BRK4) | 0.0905 | -0.113 | -0.513 | -0.0233
LRRC47 C367 (UniProt Q8N1G4) | -0.172 | -0.102 | 0.174 | -0.0195
LTV1 C309 (UniProt Q96GA3) | -0.123 | -0.0409 | -0.257 | -0.216
MAP7D1 C382 (UniProt Q3KQU3) | -0.228 | -0.163 | 0.00443 | -0.31
MAP3K7 C51 (UniProt O43318) | -0.277 | -0.134 | -0.0618 | -0.154
LUZP1 C1072 (UniProt Q86V48) | -0.189 | 0.306 | -0.088 | 0.134

A few values from above.
Entry for MAP3K7 C51 (UniProt O43318) under log2 mean competition ratio ([1]; 200 µM): -0.134
Entry for LUZP1 C1072 (UniProt Q86V48) under log2 mean competition ratio ([2]; 200 µM): 0.134

From the supplement of paper PMC11732987, “Enantioselective OTUD7B fragment discovery through chemoproteomics screening and high-throughput optimisation” (Communications Chemistry, 2025)
